PubChem BioAssay AID1053208 – Peter MacCallum Cancer Centre, 2014
Screen: 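Genes whose silencing cuts survival of bone tumour cells only with doxorubicin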 (primary screen). Cell system: mouse osteosarcoma cells, early-passage culture from an engineered mouse model of fibroblastic bone tumour. Reagents: siRNA pool against mouse genes, 40 nM. Time to read-out: about 120 h (48 h before drug, then 72 h with drug). Treatment: doxorubicin 100 nM for 72 h, roughly 30-40% inhibitory dose. Measured: 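Viability read as ATP luminescence after 72 h of 100 nM doxorubicin or none, duplicate wells averaged, scaled to non-targeting siRNA, then expressed as robust z-scores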. Reading the numbers: viability z-score with doxorubicin: higher = more viable cells under doxorubicin; viability z-score without drug: higher = more viable cells with knock-down alone; z-score of drug to no-drug ratio: higher = less drug sensitisation by knock-down. Active means: 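a pool counts as active when its viability z-score with doxorubicin is -2 or below and its z-score without drug lies between -2 and 2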.
Shown is an unselected part of about 17,000 deposited reagents. In the full data, 788 (4.7%) were called active. 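Calls rest on z-score classes alone; an extra cut-off of viability at most 70% of control was not applied to them.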 Not all columns of the deposit are shown.

| target | PubChem SID | combined z-score class | viability z-score with doxorubicin | viability z-score without drug | z-score of drug to no-drug ratio | outcome |
| --- | --- | --- | --- | --- | --- | --- |
| Agtpbp1 | SID152263939 | no change with or without drug | 0 | -0.34 | 0.34 | inactive |
| Slc25a30 | SID152298210 | no change with or without drug | 1.35 | -0.34 | 1.8 | inactive |
| Smarcad1 | SID152323685 | no change with or without drug | 0 | -1.52 | 1.24 | inactive |
| Fzr1 | SID152292806 | no change with or without drug | -0.22 | -0.51 | 0.22 | inactive |
| Or5j1 | SID152311958 | high cell count without drug only | 0.79 | 2.87 | -0.9 | inactive |
| Pawr | SID152268170 | no change with or without drug | -0.67 | 1.18 | -1.35 | inactive |
| Ctbp2 | SID152297607 | no change with or without drug | 0.9 | 0.51 | 0.67 | inactive |
| Runx1 | SID152261010 | high cell count without drug only | 0.45 | 2.19 | -0.79 | inactive |
| Hoxd13 | SID152316388 | no change with or without drug | -0.9 | -0.17 | -0.79 | inactive |
| Hey2 | SID152298982 | no change with or without drug | 0.45 | 0.51 | 0.22 | inactive |
| Zfp521 | SID152272106 | no change with or without drug | 0.45 | 0.51 | 0.22 | inactive |
| Unc119b | SID152311636 | no change with or without drug | -0.22 | 0.34 | -0.34 | inactive |
| Hsp90ab1 | SID152321316 | no change with or without drug | -1.12 | -0.17 | -1.01 | inactive |
| Snx12 | SID152278943 | low cell count with doxorubicin only | -4.16 | -0.84 | -3.93 | active |
| Myl2 | SID152276219 | no change with or without drug | 1.12 | 0.51 | 0.9 | inactive |
| Rtn1 | SID152306753 | high cell count without drug only | 0.56 | 2.7 | -1.01 | inactive |
| Slc10a1 | SID152274781 | no change with or without drug | -1.57 | -1.52 | -0.56 | inactive |
| Fktn | SID152326925 | no change with or without drug | -0.67 | 1.18 | -1.35 | inactive |
| Tcl1b4 | SID152328791 | no change with or without drug | -1.12 | -1.85 | 0.22 | inactive |
| Ift43 | SID152316033 | no change with or without drug | 1.24 | -0.84 | 2.14 | inactive |
